Test results reported in patent US4316890 (dated 1982).
* marks the point of attachment. Cbz = O=C(OCc1ccccc1)*; Boc = CC(C)(C)OC(=O)*

Assay: general procedure: solution-phase peptide synthesis; dicyclohexylcarbodiimide / N-hydroxybenzotriazole; ONP active ester
Conditions: coupling step

Bmp(Trt)-Lys(Boc)-Asn-Phe-Phe-(D-Trp)-Lys(Boc)-Thr(But)-Phe-Thr(But)-Pro-Cys(Trt)-OBut
step yield: 85%

Cbz-K(Boc)NFF-OH
step yield: 88%
